# Test results: PubChem BioAssay AID540275 (National Center for Advancing Translational Sciences (NCATS), 2011)
# Chains of the proteins cited; added tags and fusions are not shown.
# UniProt Q8NER1, whole entry, looked up: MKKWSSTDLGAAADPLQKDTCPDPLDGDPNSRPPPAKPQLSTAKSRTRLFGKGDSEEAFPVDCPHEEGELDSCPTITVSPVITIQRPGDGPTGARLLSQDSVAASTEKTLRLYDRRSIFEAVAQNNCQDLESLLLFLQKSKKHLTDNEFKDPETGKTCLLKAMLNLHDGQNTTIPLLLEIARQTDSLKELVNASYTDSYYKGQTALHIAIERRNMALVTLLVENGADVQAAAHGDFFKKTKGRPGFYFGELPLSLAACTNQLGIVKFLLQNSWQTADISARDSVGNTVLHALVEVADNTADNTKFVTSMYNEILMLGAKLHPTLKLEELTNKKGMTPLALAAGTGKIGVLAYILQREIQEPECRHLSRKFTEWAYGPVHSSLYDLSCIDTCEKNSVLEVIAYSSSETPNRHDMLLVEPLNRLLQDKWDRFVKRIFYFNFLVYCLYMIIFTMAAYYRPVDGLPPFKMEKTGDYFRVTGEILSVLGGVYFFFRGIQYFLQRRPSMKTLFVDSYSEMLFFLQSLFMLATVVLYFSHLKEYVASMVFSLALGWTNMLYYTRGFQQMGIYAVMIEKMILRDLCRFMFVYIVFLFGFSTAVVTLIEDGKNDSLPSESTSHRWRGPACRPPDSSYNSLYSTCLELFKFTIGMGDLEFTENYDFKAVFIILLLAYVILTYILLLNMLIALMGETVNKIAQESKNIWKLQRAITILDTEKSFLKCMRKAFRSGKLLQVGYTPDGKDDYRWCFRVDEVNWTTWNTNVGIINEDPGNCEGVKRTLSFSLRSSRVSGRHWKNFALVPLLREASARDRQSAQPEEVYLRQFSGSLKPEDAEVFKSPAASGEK
# Out of some 320,000 compounds screened, about 620 (0.19%) were called active. The shares of active, inactive and inconclusive entries below differ from those in the screen. Cut-off read from the data, not from the text of the source: active = activation above about 80%; inconclusive = between about 30% and that limit; inactive = weaker than that.
# Target: Transient receptor potential cation channel subfamily V member 1 (Homo sapiens) (UniProt Q8NER1)
# Assay: HTS Assay for Compounds that Act as Agonists of the Vanilloid Receptor 1; note: 0% is about no effect
# Settings: TRPV1-expressing cells, Fluo-8 calcium influx, agonist mode; at 8.33 µM, active compounds read high
# Summary of the method: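 TRPV1-expressing cells were cultured overnight at 35.5C and loaded with Fluo-8 calcium dye for 40 to 90 min at room temperature. After a 10 s baseline, compound was added and calcium influx was read kinetically for 3 min (ex 480/em 520 nm).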
row,Compound,activation
1,S=c1[nH]nc(-c2ccccn2)n1/N=C/c1c(Cl)cccc1Cl,inactive: -2.76%
2,Cc1cc2oc(C(=O)NCCc3ccc(S(N)(=O)=O)cc3)c(C)c2cc1C,inconclusive: 48.6%
3,CC(=O)Nc1ccc(S(=O)(=O)N2c3ccccc3C(C)=CC2(C)C)cc1,inconclusive: 38.6%
4,C(#CC12CC3CC(CC(C3)C1)C2)CN1CCOCC1,inconclusive: 44.1%
5,Cc1cccn2c(=O)c3cc(C(=O)NCc4ccc(F)cc4)c(=N)n(CC4CCCO4)c3nc12 (stereo unspecified),inconclusive: 46.2%
6,CCCCOc1ccc(C(C)NC(=O)CCS(=O)(=O)Cc2ccccc2Cl)cc1 (stereo unspecified),inactive: 2.79%
7,CCCNc1nc(-c2ccccc2)c(C(=O)OCC)cc1C#N,inconclusive: 48%
8,CCCCCCC(=O)N1CCCC(c2nc(-c3cccc(OC)c3)no2)C1 (stereo unspecified),inconclusive: 40.6%
9,COc1ccc2cc(C(=O)N3CCCC(Nc4ccc(F)cc4)C3)n(C)c2c1 (stereo unspecified),inconclusive: 50.4%
10,Cc1oc(-c2ccccc2Cl)nc1CN1CCCC1c1ccc(F)cc1 (stereo unspecified),inconclusive: 32.3%
11,CC(C)c1ccc(N2C(=O)/C(=C/N(C)C)SC2=S)cc1,inactive: 22.9%
12,COc1ccc(CC(=O)N2CCN(c3ccccc3)CC2)cc1OC,inconclusive: 48.6%
13,O=c1ccc(/C=C/c2ccccc2)nn1Cc1ccc(F)cc1,inconclusive: 32%
14,CCCCCOC(=O)Cn1c(N2CCOCC2)nc2c1c(=O)[nH]c(=O)n2C,inconclusive: 39.5%
15,COc1cc(/C=C2\SC(=S)N(Nc3ncc(C(F)(F)F)cc3Cl)C2=O)ccc1O,inactive: 10.1%
16,CN(C(=O)c1cccc(Nc2ccc(-c3ccc4c(c3)OCCO4)nn2)c1)C1CCCCC1,inconclusive: 53.9%
17,COc1ccc([C@H]2CC(=O)C=C(c3cccc(C(C)C)c3)C2)cc1,inconclusive: 44.8%
18,COc1ccccc1N1C(=O)C2C3C=CC(C3)C2C1=O (stereo unspecified),inactive: -2.31%
19,Cc1ccc2c(C)c(C(=O)N3CCCCC3CO)oc2c1C (stereo unspecified),inconclusive: 33.9%
20,Cc1nc(C(=O)N2CCCC(Nc3ccc(C)c(C)c3)C2)cs1 (stereo unspecified),inconclusive: 31.3%
21,Cc1sc2ncnc(Sc3nnnn3-c3ccc(Cl)cc3)c2c1C,inactive: 2.11%
22,O=C(CCS(=O)(=O)c1ccc(Br)cc1)NCc1ccc(F)cc1,inconclusive: 34.7%
23,Cc1ccc2c(CC(=O)NCC3(N4CCOCC4)CCCCC3)coc2c1C,inconclusive: 43%

row,Compound,activation
1,O=C(c1ccco1)N1CCN(c2cccc(Cl)c2)CC1,inconclusive: 41.7%
2,O=C(c1c(Cl)nc2sccn12)N1CCN(c2cccc(Cl)c2)CC1,inconclusive: 39%
3,O=C(NCC1CCN(Cc2cccc(Cl)c2)CC1)Nc1ccc(Cl)cc1,inconclusive: 60.9%
4,O=[N+]([O-])c1ccc(NC(=S)N2CCN(c3ccc(F)cc3)CC2)cc1,inactive: 12%
5,O=C(/C=C/c1ccccc1)NCCC1=CCCCC1,inconclusive: 58.4%
6,COc1ccc(NC(=O)NC(C)C2CC3CCC2C3)cc1 (stereo unspecified),inconclusive: 30.6%
7,CCCCn1c(=O)c(CCC(=O)OCC(=O)NC(=O)NCCC(C)C)nc2ccccc21,inactive: 3.05%
8,CCC(=O)Nc1cccc(NC(=O)c2ccc(Br)cc2)c1,inconclusive: 50.9%
9,O=C(Nc1ncccc1O)c1cccc(S(=O)(=O)N2CCN(c3ccc(F)cc3)CC2)c1,inconclusive: 36.4%
10,O=C(COc1coc(CN2CCN(c3ccccc3)CC2)cc1=O)NC1CCCCC1,inactive: -4.5%
11,CC1Cc2ccccc2N1C(=O)CN1CCC(n2nnc3cc(C(F)(F)F)ccc32)CC1 (stereo unspecified),inactive: -5.83%
12,CCN1CCN(c2cc(=O)n(C3CCCCC3)c(=O)[nH]2)CC1,inactive: 0.521%
13,Cc1ncoc1C(=O)NC1CC(C)(C)Cc2c1cnn2-c1ccc(F)cc1 (stereo unspecified),active: 84.5%
14,CCC1Oc2ccccc2N(CC(=O)NC2CC2)C1=O (stereo unspecified),inactive: 2.92%
15,CCOC(=O)/C=C(\C)N1N=C(c2ccccc2)CC1c1ccccc1 (stereo unspecified),inconclusive: 31.4%
16,CCN1C(=O)N/C(=C/c2ccc(C)o2)C1=O,inactive: -3.06%
17,O=C(NCc1ccccc1)N1CCN(c2ccc(Cl)c(Cl)c2)CC1,inconclusive: 60.9%
18,Cc1ccc(S(=O)(=O)N(C)CC(=O)Nc2cc(C)ccn2)cc1,inconclusive: 45%
19,CCOC(=O)c1ccc(N/C=C/C(=O)c2ccco2)cc1,inconclusive: 44.7%
20,CCOC1(c2ccccc2)CC1C(=O)N/N=C/c1cccc([N+](=O)[O-])c1 (stereo unspecified),inconclusive: 43.8%
21,CCN(CC)c1ccc(/C=c2\sc3nnc(-c4ccccc4Cl)n3c2=O)cc1,inactive: 22%
22,O=C(Nc1ccc(N2CCCCC2)cc1)c1ccc2c(c1)OCCO2,inconclusive: 60.2%
23,CC(C)C(=O)N1CCN(c2ccc([N+](=O)[O-])c(NC(C)c3ccccc3)c2)CC1 (stereo unspecified),inconclusive: 74.6%

# A different layout for 17 compounds above:
row | Compound | activation
21 | Cc1sc2ncnc(Sc3nnnn3-c3ccc(Cl)cc3)c2c1C | inactive: 2.11%
22 | O=C(CCS(=O)(=O)c1ccc(Br)cc1)NCc1ccc(F)cc1 | inconclusive: 34.7%
23 | Cc1ccc2c(CC(=O)NCC3(N4CCOCC4)CCCCC3)coc2c1C | inconclusive: 43%
1 | O=C(c1ccco1)N1CCN(c2cccc(Cl)c2)CC1 | inconclusive: 41.7%
2 | O=C(c1c(Cl)nc2sccn12)N1CCN(c2cccc(Cl)c2)CC1 | inconclusive: 39%
3 | O=C(NCC1CCN(Cc2cccc(Cl)c2)CC1)Nc1ccc(Cl)cc1 | inconclusive: 60.9%
4 | O=[N+]([O-])c1ccc(NC(=S)N2CCN(c3ccc(F)cc3)CC2)cc1 | inactive: 12%
5 | O=C(/C=C/c1ccccc1)NCCC1=CCCCC1 | inconclusive: 58.4%
6 | COc1ccc(NC(=O)NC(C)C2CC3CCC2C3)cc1 (stereo unspecified) | inconclusive: 30.6%
7 | CCCCn1c(=O)c(CCC(=O)OCC(=O)NC(=O)NCCC(C)C)nc2ccccc21 | inactive: 3.05%
8 | CCC(=O)Nc1cccc(NC(=O)c2ccc(Br)cc2)c1 | inconclusive: 50.9%
9 | O=C(Nc1ncccc1O)c1cccc(S(=O)(=O)N2CCN(c3ccc(F)cc3)CC2)c1 | inconclusive: 36.4%
10 | O=C(COc1coc(CN2CCN(c3ccccc3)CC2)cc1=O)NC1CCCCC1 | inactive: -4.5%
11 | CC1Cc2ccccc2N1C(=O)CN1CCC(n2nnc3cc(C(F)(F)F)ccc32)CC1 (stereo unspecified) | inactive: -5.83%
12 | CCN1CCN(c2cc(=O)n(C3CCCCC3)c(=O)[nH]2)CC1 | inactive: 0.521%
13 | Cc1ncoc1C(=O)NC1CC(C)(C)Cc2c1cnn2-c1ccc(F)cc1 (stereo unspecified) | active: 84.5%
14 | CCC1Oc2ccccc2N(CC(=O)NC2CC2)C1=O (stereo unspecified) | inactive: 2.92%

# The list goes on:

row,Compound,activation
1,NC(=O)CSc1nnc(-c2cc(-c3ccc(Cl)cc3)nc3ccccc23)o1,inactive: -3.81%
2,CCOCc1c(C(=O)Nc2cc(OCC)c(N3CCOCC3)cc2OCC)oc2ccccc12,inactive: 1.91%
3,O=C(N/N=C/c1cc([N+](=O)[O-])ccc1O)C1C2CCCCC21 (stereo unspecified),inactive: 4.7%
4,Cc1cc(C)nc(N2CCCC(C(=O)Nc3ccc4c(c3)OCO4)C2)n1 (stereo unspecified),active: 82.7%
5,O=C(Nc1ccccc1)C1CCCN(C(=O)c2ccc(F)cc2)C1 (stereo unspecified),inactive: 2.03%
6,CCC(Sc1nc(C)cc(C)n1)C(=O)Nc1nccs1 (stereo unspecified),inconclusive: 36.1%
7,CC1CCCCN1C(=O)c1cc(-c2ccc3c(c2)OCO3)on1 (stereo unspecified),inconclusive: 57.4%
8,CCSC1=NCCN1C(=O)c1ccc(S(=O)(=O)N(C)C)cc1,inactive: 0.97%
9,BrC(=C\c1ccccc1)/C=N/Nc1nc(N2CCOCC2)nc(N2CCOCC2)n1,inconclusive: 52.6%
10,COc1ccc(CN(C(=O)c2snc(C(N)=O)c2N)C(C)C(=O)NCc2ccc(F)cc2)cc1 (stereo unspecified),inactive: -0.342%
11,Cc1ccc(N(CC(=O)NCc2ccco2)C(=O)CCC(=O)Nc2ccccn2)c(C)c1,inactive: 0.0413%
12,O=C(CCCC(=O)c1ccccc1)Nc1ccc(F)cc1,inconclusive: 48.7%
13,CC1CCC(C(C)C)C(OC(=O)COC(=O)c2ccc(=O)[nH]c2)C1 (stereo unspecified),inconclusive: 79.1%
14,Cc1ccc(C(=O)N2CC=C(c3ccccc3)CC2)o1,inconclusive: 47.6%
15,CCC(=O)n1nc(-c2cccnc2)nc1NCc1ccccc1,inactive: 0.845%
16,CCCN(CCC)C(=O)CSc1nc2ccccc2c(=O)n1C1CCCC1,inconclusive: 42.6%
17,CC(C)c1ccc(NC(=O)c2cccnc2)cc1,inconclusive: 54.7%
18,Cc1ccc(F)cc1NC(=O)C1CC(=O)N(CCc2ccccc2)C1 (stereo unspecified),inconclusive: 54.7%
19,Cc1ccc(-n2c(C)cc(/C=C(\C#N)C(=O)NCC3CCCO3)c2C)cc1 (stereo unspecified),inconclusive: 46%
20,Cc1ccc(C)c(-n2c(-c3ccc4c(c3)OCO4)n[nH]c2=S)c1,inactive: -2.16%
21,COc1cccc(CNC(=O)c2ccc(C3SCCS3)cc2)c1,inconclusive: 37.2%
22,O=[N+]([O-])c1ccn(-c2nc(-c3cccs3)cc(C(F)(F)F)n2)n1,inactive: 0.831%
23,Cc1ccc2c(c1)N(C(=O)CCC(=O)N1CCOCC1)CC(C)O2 (stereo unspecified),inconclusive: 37.9%

row,Compound,activation
1,O=C(NCCCN1CCOCC1)c1ccccc1N1C(=O)[C@@H]2Cc3c([nH]c4ccccc34)C(c3cccc(Cl)c3)N2C1=O (stereo partly specified),inactive: 1.42%
2,COc1ccc(CSCCNC(=S)Nc2ccccc2)cc1Cl,inconclusive: 58.3%
3,CCOC(=O)[C@H]1[C@H]2COc3ccccc3[C@@H]2N2C(=O)c3ccccc3NC(=O)[C@@]12C,inconclusive: 42.9%
4,O=C(NCCC1=CCCCC1)C1CCN(S(=O)(=O)c2ccccc2)CC1,inconclusive: 49.8%
5,CCN(CC)c1ccc(NC(=S)Nc2ccc(F)cc2)cc1,inconclusive: 37.8%
6,Cc1ccc(NC(=O)CN2CCc3ccccc3C2)cc1C,inconclusive: 30.7%
7,CCOCCCn1c(SCC(=O)Nc2ccccc2)nc2ccccc2c1=O,inconclusive: 42%
8,Cc1ccc(NC(=O)Cc2ncon2)cc1Cl,inactive: 4.53%
9,Cc1ccccc1OC1C(=O)N(Cc2ccc3c(c2)OCO3)C1c1sccc1C (stereo unspecified),inconclusive: 37.5%
10,COc1ccc(CNC(=O)CN2CCN(c3ccccc3O)CC2)cc1OC,inconclusive: 78.6%
11,O=C(CNCC1CCCO1)Nc1ccc(N2CCCCCC2)cc1 (stereo unspecified),inconclusive: 67.2%
12,CC(C)(C)c1ccc(/C=N/Nc2ccc(C(=O)O)cc2)cc1,inactive: 1.37%
13,CCCOc1ccc2cc(-c3ccccn3)c(=O)oc2c1,inconclusive: 49.6%
14,O=C(N/N=C/c1ccccn1)c1ccc(Cl)c(Cl)c1,inconclusive: 41%
15,COC(=O)[C@]1(C)CCC[C@@]2(C)C3CC[C@@]4(C)C[C@]3(CCC21)CC4=NO (stereo partly specified),inconclusive: 33.5%
16,O=C(NCCC1=CCCCC1)c1coc(=O)c(Br)c1,inactive: 23.9%
17,CCCc1cc(C(=O)Cc2ccccn2)c(O)cc1O,inconclusive: 31%
18,Cc1ccccc1NC(=O)c1cc2ccccc2o1,inconclusive: 34.4%
19,CC(=O)N1CCN(c2nc(-c3cccs3)nc3ccccc23)CC1,inconclusive: 67.1%
20,COc1ccc(NC(=S)NC(=O)c2cncc(Br)c2)c(OC)c1,inactive: 4.39%
21,CC(=O)N(C)c1ccc(OCC(O)CN(c2ccccc2C)S(=O)(=O)c2ccc(C)cc2)cc1 (stereo unspecified),inactive: 14.2%
22,CCOC(=O)c1c(CC(C)C)csc1NC(=O)COC(=O)c1ccc(O)cc1,inconclusive: 34.7%
